Data as given in PubChem BioAssay AID1224831 (NIAID, 2016).
Purpose: 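Retesting screen hits on the TLR4-driven TNF response with six separate siRNAs each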 (follow-up of hits). Cells: human THP-1 B5 monocytic leukaemia cells carrying a TNF promoter luciferase reporter, made macrophage-like with PMA. Knock-down reagent: single siRNA against human genes, 50 nM. Time to read-out: about 68 h of knock-down, then 4 h LPS. Treatment: LPS (Salmonella minnesota, TLR-grade) at 10 ng/ml for 4 h; PMA 5 ng/ml present during knock-down. Read-out: 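TNF promoter reporter read as dual luciferase ratio after 4 h LPS, normalised per plate to its median, given as replicate mean robust z-score per siRNA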. Scale: TNF reporter z-score: higher = stronger LPS-induced TNF reporter signal; z-score, median over gene's siRNAs: higher = stronger TNF reporter signal across the gene's siRNAs. Active means: 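Active when the replicate mean z-score is about -1 or lower, or about 1.5 or higher; lowered and raised TNF reporter signal both count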. Calls: active = changed TNF reporter (either direction); inactive = little change.
In all, the deposit lists about 3,500 reagents; below is a part drawn at random. In the full data, 731 (21%) are marked active. 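Active means either lowered or raised reporter signal; the gene-median score did not drive the per-siRNA calls.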 A number with no mark means an inactive call. The numbers tell different reagents against one gene apart. No sequences are given here.

With SRP54 (signal recognition particle 54) #1, how do the results read?
TNF reporter z-score, replicate mean: 0.34; z-score, median over gene's siRNAs: -1.74

For SRP54 (signal recognition particle 54) #2, what does the deposit list?
TNF reporter z-score, replicate mean: -2.5 (active); z-score, median over gene's siRNAs: -1.74

With SRP54 (signal recognition particle 54) #3, what was measured?
TNF reporter z-score, replicate mean: -1.73 (active); z-score, median over gene's siRNAs: -1.74

Which result is listed for SRP54 (signal recognition particle 54) #4?
TNF reporter z-score, replicate mean: -2.06 (active); z-score, median over gene's siRNAs: -1.74

How did the screen score SRP54 (signal recognition particle 54) #5?
TNF reporter z-score, replicate mean: -1.75 (active); z-score, median over gene's siRNAs: -1.74

With SRP54 (signal recognition particle 54) #6, how do the results read?
TNF reporter z-score, replicate mean: -0.84; z-score, median over gene's siRNAs: -1.74

How did the screen score POU2F1 (POU class 2 homeobox 1) #1?
TNF reporter z-score, replicate mean: 0.02; z-score, median over gene's siRNAs: 0.38

What is on record for POU2F1 (POU class 2 homeobox 1) #2?
TNF reporter z-score, replicate mean: 0.59; z-score, median over gene's siRNAs: 0.38

With POU2F1 (POU class 2 homeobox 1) #3, what was measured?
TNF reporter z-score, replicate mean: -0.07; z-score, median over gene's siRNAs: 0.38

For POU2F1 (POU class 2 homeobox 1) #4, how do the results read?
TNF reporter z-score, replicate mean: 0.17; z-score, median over gene's siRNAs: 0.38

For POU2F1 (POU class 2 homeobox 1) #5, what was measured?
TNF reporter z-score, replicate mean: 1.16; z-score, median over gene's siRNAs: 0.38

What did the screen give for POU2F1 (POU class 2 homeobox 1) #6?
TNF reporter z-score, replicate mean: 0.92; z-score, median over gene's siRNAs: 0.38

For WNT7A (Wnt family member 7A) #1, how do the results read?
TNF reporter z-score, replicate mean: 1.26; z-score, median over gene's siRNAs: 0.22

For WNT7A (Wnt family member 7A) #2, what was measured?
TNF reporter z-score, replicate mean: -0.79; z-score, median over gene's siRNAs: 0.22

With WNT7A (Wnt family member 7A) #3, how do the results read?
TNF reporter z-score, replicate mean: -1.39 (active); z-score, median over gene's siRNAs: 0.22

What is on record for WNT7A (Wnt family member 7A) #4?
TNF reporter z-score, replicate mean: -0.24; z-score, median over gene's siRNAs: 0.22

With WNT7A (Wnt family member 7A) #5, how do the results read?
TNF reporter z-score, replicate mean: 2.66 (active); z-score, median over gene's siRNAs: 0.22

With WNT7A (Wnt family member 7A) #6, what does the deposit list?
TNF reporter z-score, replicate mean: 0.68; z-score, median over gene's siRNAs: 0.22

Which result is listed for SERPINB10 (serpin family B member 10) #1?
TNF reporter z-score, replicate mean: 0.2; z-score, median over gene's siRNAs: 0.315

What did the screen give for SERPINB10 (serpin family B member 10) #2?
TNF reporter z-score, replicate mean: 0.96; z-score, median over gene's siRNAs: 0.315

How did the screen score SERPINB10 (serpin family B member 10) #3?
TNF reporter z-score, replicate mean: 0.39; z-score, median over gene's siRNAs: 0.315

What is on record for SERPINB10 (serpin family B member 10) #4?
TNF reporter z-score, replicate mean: -0.62; z-score, median over gene's siRNAs: 0.315

Which result is listed for SERPINB10 (serpin family B member 10) #5?
TNF reporter z-score, replicate mean: 0.31; z-score, median over gene's siRNAs: 0.315

How did the screen score SERPINB10 (serpin family B member 10) #6?
TNF reporter z-score, replicate mean: 0.32; z-score, median over gene's siRNAs: 0.315

What did the screen give for OR8J3 (olfactory receptor family 8 subfamily J member 3) #1?
TNF reporter z-score, replicate mean: 1.18; z-score, median over gene's siRNAs: -0.07

What did the screen give for OR8J3 (olfactory receptor family 8 subfamily J member 3) #2?
TNF reporter z-score, replicate mean: -0.22; z-score, median over gene's siRNAs: -0.07

For OR8J3 (olfactory receptor family 8 subfamily J member 3) #3, how do the results read?
TNF reporter z-score, replicate mean: 1.12; z-score, median over gene's siRNAs: -0.07

What is on record for OR8J3 (olfactory receptor family 8 subfamily J member 3) #4?
TNF reporter z-score, replicate mean: -1.74 (active); z-score, median over gene's siRNAs: -0.07

For OR8J3 (olfactory receptor family 8 subfamily J member 3) #5, how do the results read?
TNF reporter z-score, replicate mean: -0.5; z-score, median over gene's siRNAs: -0.07

What is on record for OR8J3 (olfactory receptor family 8 subfamily J member 3) #6?
TNF reporter z-score, replicate mean: 0.08; z-score, median over gene's siRNAs: -0.07

What did the screen give for SRD5A2 (steroid 5 alpha-reductase 2) #1?
TNF reporter z-score, replicate mean: 0.1; z-score, median over gene's siRNAs: 0.1

How did the screen score SRD5A2 (steroid 5 alpha-reductase 2) #2?
TNF reporter z-score, replicate mean: -0.04; z-score, median over gene's siRNAs: 0.1

With SRD5A2 (steroid 5 alpha-reductase 2) #3, what was measured?
TNF reporter z-score, replicate mean: 0.1; z-score, median over gene's siRNAs: 0.1

How did the screen score SRD5A2 (steroid 5 alpha-reductase 2) #4?
TNF reporter z-score, replicate mean: 0.63; z-score, median over gene's siRNAs: 0.1

With SRD5A2 (steroid 5 alpha-reductase 2) #5, what was measured?
TNF reporter z-score, replicate mean: 0.24; z-score, median over gene's siRNAs: 0.1

What did the screen give for SRD5A2 (steroid 5 alpha-reductase 2) #6?
TNF reporter z-score, replicate mean: -0.77; z-score, median over gene's siRNAs: 0.1

For CLEC12B (C-type lectin domain family 12 member B) #1, what was measured?
TNF reporter z-score, replicate mean: 0.57; z-score, median over gene's siRNAs: -0.045

For CLEC12B (C-type lectin domain family 12 member B) #2, what was measured?
TNF reporter z-score, replicate mean: -1.4 (active); z-score, median over gene's siRNAs: -0.045

For CLEC12B (C-type lectin domain family 12 member B) #3, what was measured?
TNF reporter z-score, replicate mean: 0.99; z-score, median over gene's siRNAs: -0.045

For CLEC12B (C-type lectin domain family 12 member B) #4, how do the results read?
TNF reporter z-score, replicate mean: -0.3; z-score, median over gene's siRNAs: -0.045

For CLEC12B (C-type lectin domain family 12 member B) #5, what was measured?
TNF reporter z-score, replicate mean: -0.62; z-score, median over gene's siRNAs: -0.045

How did the screen score CLEC12B (C-type lectin domain family 12 member B) #6?
TNF reporter z-score, replicate mean: 0.21; z-score, median over gene's siRNAs: -0.045

With SIK1 (salt inducible kinase 1) #1, what does the deposit list?
TNF reporter z-score, replicate mean: 0.07; z-score, median over gene's siRNAs: 0.295

What did the screen give for SIK1 (salt inducible kinase 1) #2?
TNF reporter z-score, replicate mean: 0.52; z-score, median over gene's siRNAs: 0.295

For SIK1 (salt inducible kinase 1) #3, what does the deposit list?
TNF reporter z-score, replicate mean: 0.61; z-score, median over gene's siRNAs: 0.295

Which result is listed for SIK1 (salt inducible kinase 1) #4?
TNF reporter z-score, replicate mean: -0.69; z-score, median over gene's siRNAs: 0.295

What did the screen give for SIK1 (salt inducible kinase 1) #5?
TNF reporter z-score, replicate mean: 1.09; z-score, median over gene's siRNAs: 0.295

Which result is listed for SIK1 (salt inducible kinase 1) #6?
TNF reporter z-score, replicate mean: -0.64; z-score, median over gene's siRNAs: 0.295

For SLC15A2 #1, what does the deposit list?
TNF reporter z-score, replicate mean: -0.2; z-score, median over gene's siRNAs: -0.235

For SLC15A2 #2, what does the deposit list?
TNF reporter z-score, replicate mean: -0.27; z-score, median over gene's siRNAs: -0.235

With SLC15A2 #3, what does the deposit list?
TNF reporter z-score, replicate mean: 1.12; z-score, median over gene's siRNAs: -0.235

How did the screen score SLC15A2 #4?
TNF reporter z-score, replicate mean: -0.64; z-score, median over gene's siRNAs: -0.235

For SLC15A2 #5, what does the deposit list?
TNF reporter z-score, replicate mean: -1.43 (active); z-score, median over gene's siRNAs: -0.235

What did the screen give for SLC15A2 #6?
TNF reporter z-score, replicate mean: -0.03; z-score, median over gene's siRNAs: -0.235

Look-ups from the list:
CLEC12B (C-type lectin domain family 12 member B) #2, z-score, median over gene's siRNAs → -0.045 (active)
SRD5A2 (steroid 5 alpha-reductase 2) #4, z-score, median over gene's siRNAs: 0.1
SRP54 (signal recognition particle 54) #4, TNF reporter z-score, replicate mean = -2.06 (active)
Result for SRD5A2 (steroid 5 alpha-reductase 2) #3 in “TNF reporter z-score, replicate mean”: 0.1
Entry for SERPINB10 (serpin family B member 10) #2 in “TNF reporter z-score, replicate mean”: 0.96
SRP54 (signal recognition particle 54) #3, TNF reporter z-score, replicate mean = -1.73 (active)
